Several values for one entry are separate records, joined by “and”; a condition that tells them apart may be missing. Equal values may be shown once.
Tests used:
[1] = 1H NMR dilution studies (self-association); format: physicochemical; conditions: MeCN-d3, NH proton, Nelder-Mead fit
[2] = Cl^−/NO3^− antiport assay by chloride ISE; format: biochemical; conditions: Hill analysis
Description: The chloride transport properties of the new perenosins 2–8 were compared to 1d using the chloride/nitrate exchange assay monitored by a chloride ion selective electrode (ISE). Typically, unilamellar vesicles were prepared from POPC, containing an intravesicular NaCl solution (489 mM with 5 mM phosphate buffer at pH 7.2) suspended in a NaNO3 solution (489 mM with 5 mM phosphate buffer at pH 7.2). All perenosins were added as a DMSO solution and the rate of chloride efflux was monitored by the chloride ISE. At the end of the experiment (300 s), detergent was added to lyse the vesicles and obtain the 100% chloride efflux reading. Dose response studies of 1d and 2–8 were performed to allow Hill analysis, giving the EC50 values and Hill coefficients as shown in Table 2.
The external pH of cancer cells (pH 6.7[53]) is slightly acidic compared to healthy cells (pH 7.2–7.5[54]). […] To investigate the effect of pH on the chloride transport capabilities unilamellar vesicles were loaded with NaCl (489 mM) and suspended in NaNO3 (489 mM), and the internal and external solutions were buffered to pH 4.5, 6.5, 7.2 and 10 using various buffers (more detail can be found in the Supplementary Information). Compounds 1d and 2–8 were then tested in a single point screen at 0.1 mol% loading (Fig. 5). At pH 4.5 the perenosins exist predominantly as the active protonated species and so all compounds show moderate to high chloride transport properties, whereas, there is no chloride transport observed at pH 10 (see Supplementary Information for results).
S10. Anion Transport Studies
S10.1. General Procedure for the ISE Assay
(§1) Unilamellar vesicles were prepared using previously reported literature procedures7-9. A lipid film of POPC (1-palmitoyl-2-oleoyl-sn-glycero-3-phosphocholine) or POPC:cholesterol (7:3 molar ratio) was prepared from a chloroform solution under reduced pressure and then dried under vacuum for 4 or more hours. The lipid film was rehydrated by vortexing with an internal solution of buffered metal chloride salt (usually 489 mM MCl). The lipid suspension was then subjected to 9 freeze-thaw cycles and left to rest at room temperature for 30 minutes. After this, the suspension was extruded 25 times through a 200 nm polycarbonate membrane resulting in unilamellar vesicles of a mean diameter of 200 nm. The large unilamellar vesicles were dialysed in the corresponding external solution for a minimum of 2 hours to remove any unencapsulated metal salts. The lipid solution obtained after dialysis was diluted to a standard volume (usually 10 mL) with the external buffered solution to obtain a lipid stock of known concentration.
Internal and external solutions vary for each experiment and are detailed for each. Experiments conducted at different pHs required different buffers (citrate buffer for pH 4.5; phosphate buffer for pH 6.5 and pH 7.2; and ethanolamine buffer for pH 10) however, a constant buffer concentration (5 mM) and total ionic strength (500 mM) was maintained.
The lipid stock was diluted with the external buffer solution to a standard volume (5 mL), to afford a solution with a lipid concentration of 1 mM. The compounds were added as a DMSO solution (10 μL) at the start of the experiment and the resulting chloride efflux was monitored using a chloride selective electrode over 5 minutes. After this time, detergent (50 μL of Triton X-100 (11 w%) in H2O:DMSO (7:1 v/v)) was added to lyse the vesicles and after 7 minutes a final chloride efflux reading was taken. […]

[3] = NMDG-Cl assay by HPTS (H^+/Cl^− symport); format: biochemical; conditions: for SG chloride selectivity: EC50 in absence of Gra divided by EC50 (Gra)
Description: The selectivity for Cl^−>H^+/OH^− transport of the perenosins was quantified using a modified NMDG-Cl assay. Unilamellar vesicles loaded with HPTS (1 mM) and N-methyl-D-glucamine chloride (NMDG-Cl) (100 mM), buffered to pH 7 with HEPES (10 mM) were prepared. Free base NMDG (0.5 M) was added increasing the extravesicular solution to pH 8, and the dissipation of this gradient following the addition of receptors was monitored. Dissipation of pH gradient indicates H^+/Cl^− symport (or the functionally equivalent OH^−/Cl^− exchange) mediated by perenosins. Gramicidin D (Gra) is a proton channel added to facilitate H^+ transport. The addition of oleic acid (OA), a naturally occurring fatty acid found in cell membranes, allowed the investigation of the enhancement in H^+/Cl^− symport, in the presence of oleic acid. Anion transporters can assist the fatty acid flip-flop mechanism by taking on the role of a flippase for fatty acid anions via binding to the anionic carboxylate head group, masking the charge and allowing rapid passage of the head group through the lipid bilayer. This in turn accelerates the natural proton transport mediated by fatty acids in biological membranes.
For all cases EC50 values were obtained from dose-response experiments and subsequent Hill analysis (see Supplementary Information). Chloride selectivity was then quantified to give a selectivity factor (SG), shown in Table 2, using the ratio of the EC50 values. From the previous cationophore coupled assays, it was evident that the capability of perenosins to facilitate electrogenic chloride transport is negligible, therefore an absence in selectivity for Cl^−>H^+/OH^− was expected. […] FOA values for the overall H^+/Cl^− cotransport rate were calculated for compounds 1d and 2–6 in the presence of OA and are also shown in Table 2. […] In the presence of fatty acids, an alternative pathway that involves the diffusion of the fatty acid complex and free fatty acids could replace this step. […] This may be likely due to the competitive binding of the receptors to the carboxylate head group so inhibiting chloride binding and transport.
S10.8. General Procedure for the HPTS Assay
as §1, with “procedures16.” for “procedures7-9.”, “(1-palmitoyl-2-oleoyl-sn-glycero-3-phosphocholine)” for “(1-palmitoyl-2-oleoyl-sn-glycero-3-phosphocholine) or POPC:cholesterol (7:3 molar ratio)”, “containing HPTS (1 mM).” for “of buffered metal chloride salt (usually 489 mM MCl).”, “un-encapsulated HPTS was removed by size exclusion chromatography using a sephadex G-25 column and an” for “large unilamellar vesicles were dialysed in the corresponding”, “eluent that does not contain HPTS.” for “for a minimum of 2 hours to remove any unencapsulated metal salts.”
In each experiment identical internal and external solutions were used with various salts (NMDG -Cl or sodium gluconate) buffered with HEPES (10 mM) to pH 7.0, and are detailed below.
The lipid stock was diluted with the external buffer solution to a standard volume (2.5 mL), to afford a solution with a lipid concentration of 0.1 mM. The compounds were added as a DMSO solution (10 μL) and when an assisting ionophore (gramicidin) or oleic acid (a naturally occurring monosaturated fatty acid) was used this was also added as a DMSO solution (5 μL, 0.1 mol% or 2 mol% respectively (with respect to lipid)). To start the experiment, after the addition of the compounds, a base pulse (25 μL, of NMDG or TBAOH (0.5 M)) was spiked in to generate a pH gradient across the membrane. […]

MDA-MB-231 cells = assay: MTT cell viability assay; format: cell-based, human; conditions: IC50 (24 h) divided IC50 (72 h)
Description: Herein, we carried out further in vitro studies at the University of Barcelona for the full library of perenosins. Single dose screening for cell viability using the methylthiazoletetrazolium (MTT) colorimetric assay over five different cell lines (cancer cells MCF-7, MDA-MB-231, A549 and SW620, and non-cancerous human cells MCF-10A) was conducted.
While perenosin 5, with pentyl substituent at R3, has similar cell viability effects as 1d, bis-indole perenosin 7 with pentyl substituent at R1 has a moderate degree of late onset by a factor of 7.
S11.1 Cell Lines and Culture Conditions
The human cell lines were obtained from the American Type Culture Collection (ATCC, Manassas VA). Breast adenocarcinoma MDA-MB-231 and MCF-7 cells were maintained in DMEM:F12 media (1:1; Biological Industries, Beit Haemek, Israel), and 10 µg/ml insulin and 50 µM sodium pyruvate from Sigma-Aldrich Chemical Co. (St. Louis, MO) were added to MCF-7 cells. Lung adenocarcinoma A549 and colorectal adenocarcinoma SW620 cells were cultured in DMEM media. All were supplemented with 10% foetal bovine serum (FBS; Invitrogen-Life Technologies, Carlsbad, CA) and 100 U/mL penicillin, 100 µg/mL streptomycin and 2 mM L-glutamine, all from Biological Industries.
Mammary epithelial MCF-10A cells were maintained in DMEM:F12 media supplemented with 5% horse serum (Life Technologies), 20 ng/ml EGF, 0.5 µg/ml Hydrocortisone, 100 ng/ml Cholera toxin, 10 µg/ml insulin all from Sigma-Aldrich and 100 U/ml penicillin, 100 µg/ml streptomycin, and 2 mM L- glutamine (Biological Industries). Cells were grown at 37 °C under a 5% CO2 atmosphere.
S11.2 Cell Viability Assays
Cell viability was evaluated using the methylthiazoletetrazolium (MTT) colorimetric assay. Cancer cells (MCF-7, MDA-MB-231, A549 and SW620) or non-cancerous human cells MCF-10A cells were harvested (10^4 cells/well) in 96-well plates in a final volume of 100 µl and allowed to grow overnight.
After 24 h, vehicle solution (DMSO) or experimental compounds were added at 10 µM (single point experiment) or at different ranging concentrations (0.8-100 µM) to the assay plate and were incubated for 24 or 72 h. Then, 10 µl of MTT (5 mg/ml; Sigma-Aldrich) were added and the plates were incubated for 4 h at 37°C. 100 µl of DMSO (Sigma-Aldrich) were added to dissolve crystals and the reading was taken spectrophotometrically at 570 nm using a multi-well plate reader (Multiskan FC, Thermo Scientific, Waltham, MA, USA). Cell viability and inhibitory concentration (IC) values were obtained using GraphPad Prism v5.0 (Graphpad Software, San Diego, CA, USA). All data are shown as the mean value ± standard deviation (S.D.) of three independent experiments.

Compound	n (Hill coefficient) Cl^−/NO3^− at pH 7.2 (by ISE) [2]	SG chloride selectivity [3]	FA factor of activity enhancement (MDA-MB-231 cells)	other results
CCCCCc1cc2cc(C)cc(/N=C/c3[nH]c4ccccc4c3C)c2[nH]1 [Perenosin 8]				dimerization constant (K d) [1]: negligible association
CCCc1cc2cc(C)cc(/N=C/c3[nH]c(C)cc3C)c2[nH]1 [Perenosin 4]	1.1	1.8		FOA factor of enhancement ([3]; EC50 in absence of Gra or OA divided by EC50 (OA)): 9 and 8.6
CCCCCc1cc(/N=C/c2[nH]c3ccccc3c2C)c2[nH]ccc2c1 [Perenosin 7]			7 and 6.7	
COc1cc(/N=C/c2[nH]c(C)cc2C)c2[nH]ccc2c1 [Perenosin 1e]			1.2	
CCCCCc1cc2cc(C(F)(F)F)cc(/N=C/c3[nH]c(C)cc3C)c2[nH]1 [Perenosin 3]		1.3		
Cc1cc(C)c(/C=N/c2cc(C(F)(F)F)cc3cc[nH]c23)[nH]1 [Perenosin 1b]			1.5	
Cc1cc(/N=C/c2[nH]c(C)cc2C)c2[nH]ccc2c1 [Perenosin 1c]			1.7	
CCCCCc1cc2cc(C)cc(/N=C/c3[nH]c(C)c(CCCCC)c3C)c2[nH]1 [Perenosin 6]	0.3	1.2		dimerization constant (K d) [1]: 0.000355 M⁻¹; equilibrium of aggregation (K e) [1]: 0.00071 M⁻¹
CCCCCc1cc(/N=C/c2[nH]c(C)cc2C)c2[nH]ccc2c1 [Perenosin 1d]	1.2	1.6	1.5	
CCCCCc1cc2cc(C)cc(/N=C/c3[nH]c(C)cc3C)c2[nH]1 [Perenosin 2]	1.3	1.7		dimerization constant (K d) [1]: 2.2 M⁻¹; equilibrium of aggregation (K e) [1]: 4.39 M⁻¹
Cc1cc(C)c(/C=N/c2cccc3cc[nH]c23)[nH]1 [Perenosin 1a]			1.6	
CCCCCc1c(C)[nH]c(/C=N/c2cc(C)cc3cc[nH]c23)c1C [Perenosin 5]	1.3	2.4	1.5	

Reference: PMC5570892, “Indole-based perenosins as highly potent HCl transporters and potential anti-cancer agents” (Scientific Reports, 2017)
